No constants are given. Whether binding was seen depends on the method and setting. Some binding calls cover weakened binding; strength is not graded here.
Key:
Lysozyme [1] = target: Lysozyme (UniProt P00698); assay: co-sedimentation; after the 6-hour lysozyme (10 μM) aggregation assay in PBS, 2 mM DTT, 37°C; 6,000 rpm 20 min; supernatant and pellet on SDS-PAGE; both purified
Lysozyme [2] = target: Lysozyme (UniProt P00698); assay: dynamic light scattering; 10 μM lysozyme with 10 μM chaperone (1:1) in 1 ml PBS, 2 mM DTT, 37°C; effective radius and mass at 0 and 6 hr (Nanobrook Omni); both purified
Alcohol dehydrogenase = target: T1, Alcohol dehydrogenase (UniProt P00330); assay: SEC-MALS; chaperone (100 μg) with ADH (75 μg) in 0.25 mL PBS, 50 mM EDTA, 37°C, 60 min; supernatant on TSK G5000PWXL with MALS; compared with samples without incubation (0 min); both purified
T1 sequence: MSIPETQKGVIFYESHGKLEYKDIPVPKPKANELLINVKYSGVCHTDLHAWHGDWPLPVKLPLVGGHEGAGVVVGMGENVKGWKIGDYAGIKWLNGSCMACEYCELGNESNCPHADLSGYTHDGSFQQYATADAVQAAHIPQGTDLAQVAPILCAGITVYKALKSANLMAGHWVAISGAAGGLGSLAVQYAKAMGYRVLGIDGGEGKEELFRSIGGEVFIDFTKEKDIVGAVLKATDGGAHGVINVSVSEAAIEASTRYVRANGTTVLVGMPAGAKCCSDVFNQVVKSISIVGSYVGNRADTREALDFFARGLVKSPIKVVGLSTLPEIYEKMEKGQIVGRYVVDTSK

Measured: binding

B1: wild-type αB-crystallin (protein, UniProt P02511 1-175)
chain: MDIAIHHPWIRRPFFPFHSPSRLFDQFFGEHLLESDLFPTSTSLSPFYLRPPSFLRAPSWFDTGLSEMRLEKDRFSVNLDVKHFSPEELKVKVLGDVIEVHGKHEERQDEHGFISREFHRKYRIPADVDPLTITSSLSSDGVLTVNGPRKQVSGPERTIPITREEKPAVTAAPKK
binds: all assays above

B2: αB-crystallin ΔS59 (deletion of Serine 59) (protein, UniProt P02511 1-175)
chain: MDIAIHHPWIRRPFFPFHSPSRLFDQFFGEHLLESDLFPTSTSLSPFYLRPPSFLRAPWFDTGLSEMRLEKDRFSVNLDVKHFSPEELKVKVLGDVIEVHGKHEERQDEHGFISREFHRKYRIPADVDPLTITSSLSSDGVLTVNGPRKQVSGPERTIPITREEKPAVTAAPKK
binds: all assays above

B3: αB-crystallin S59A (protein, UniProt P02511 1-175)
chain: MDIAIHHPWIRRPFFPFHSPSRLFDQFFGEHLLESDLFPTSTSLSPFYLRPPSFLRAPAWFDTGLSEMRLEKDRFSVNLDVKHFSPEELKVKVLGDVIEVHGKHEERQDEHGFISREFHRKYRIPADVDPLTITSSLSSDGVLTVNGPRKQVSGPERTIPITREEKPAVTAAPKK
binds: all assays above

B4: αB-crystallin S59D (phosphomimetic mutant) (protein, UniProt P02511 1-175)
chain: MDIAIHHPWIRRPFFPFHSPSRLFDQFFGEHLLESDLFPTSTSLSPFYLRPPSFLRAPDWFDTGLSEMRLEKDRFSVNLDVKHFSPEELKVKVLGDVIEVHGKHEERQDEHGFISREFHRKYRIPADVDPLTITSSLSSDGVLTVNGPRKQVSGPERTIPITREEKPAVTAAPKK
binds: all assays above

B5: αB-crystallin with residues 54–61 deleted (protein, UniProt P02511)
chain: MDIAIHHPWIRRPFFPFHSPSRLFDQFFGEHLLESDLFPTSTSLSPFYLRPPSDTGLSEMRLEKDRFSVNLDVKHFSPEELKVKVLGDVIEVHGKHEERQDEHGFISREFHRKYRIPADVDPLTITSSLSSDGVLTVNGPRKQVSGPERTIPITREEKPAVTAAPKK
binds: all assays above

Reference: PMC12204343
